Experimental findings from article PMC6953435 are described below.

What all share (assay): affinity purification with mass spectrometry; GFP-tagged bait pulled down from clarified C. elegans lysate with GFP-Trap (anti-GFP nanobody agarose), 4 h at 4°C; lysis buffer 50 mM HEPES pH 7.4, 1 mM EGTA, 1 mM MgCl2, 100 mM KCl, 10% glycerol, 0.05% NP40, 1 mM DTT; 3 washes with 50 mM HEPES, 100 mM KCl; SDS-PAGE, Orbitrap LC-MS/MS; two independent experiments
One assay concerns the target T1, EIF-3.L-GFP (C. elegans) (UniProt Q95QW0).
T1 sequence: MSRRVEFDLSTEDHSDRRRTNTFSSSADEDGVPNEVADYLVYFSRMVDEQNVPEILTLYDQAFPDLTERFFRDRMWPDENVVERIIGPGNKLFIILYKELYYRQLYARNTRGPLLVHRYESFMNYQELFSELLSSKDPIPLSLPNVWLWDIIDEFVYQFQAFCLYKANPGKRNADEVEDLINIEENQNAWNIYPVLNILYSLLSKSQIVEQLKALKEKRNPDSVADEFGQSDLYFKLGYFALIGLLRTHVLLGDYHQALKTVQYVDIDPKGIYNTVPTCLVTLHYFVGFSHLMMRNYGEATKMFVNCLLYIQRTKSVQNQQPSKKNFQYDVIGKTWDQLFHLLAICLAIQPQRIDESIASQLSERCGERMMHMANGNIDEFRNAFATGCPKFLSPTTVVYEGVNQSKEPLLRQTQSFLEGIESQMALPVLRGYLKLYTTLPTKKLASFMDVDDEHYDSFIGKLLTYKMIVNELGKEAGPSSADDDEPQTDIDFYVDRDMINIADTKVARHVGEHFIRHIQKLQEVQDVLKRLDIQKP

For a further assay, the target named is GFP-ARCP-1B (C. elegans).
Another assay addresses MALT-1-GFP (C. elegans).

These are yes or no findings as the source states them, for the method shown. Binding seen in cells or lysates may run through a third protein. Here binding means that the protein was enriched with, or labelled near, the bait; the list need not be complete. For part of these data: No binding means not detected with the bait. For part of these data: Tags and fused reporters may be left off the sequences shown.

B1: phosphodiesterase 1 (PDE-1) (enzyme, UniProt O18696 1-664)
chain: MNRARKTSSCGCFRSAFCLLKPSTSSASEEHGDSDKKLLSVQLITPRDEEEQTSSRSIKIPPLDLNGLDCKKNAVAARRAGRRRTSEGGGVRGKGHFAEVVLDGLQRPVSLLRNQKEKSNSDDNCQEKEPTSPSSSRKKSYDNAPALESLEKLRYILHQLNSGQLPLEDLKRNIEYAALVLETAYMDETRRICDEDDDLAEVTPETVPDEVREWLAATFTRQNAGKKRDKPKFKSVANAIRTGIFFEKLFRKQQVVQCPIPPEIAELMKEVCTWSFSPFQLNEVSEGHALKYVGFELFNRYGFMDRFKVPLTALENYLSALEVGYSKHNNPYHNVVHAADVTQSSHFMLSQTGLANSLGDLELLAVLFGALIHDYEHTGHTNNFHIQSQSQFAMLYNDRSVLENHHVSSCFRLMKEDDKNILTHLTRDEYKELRNMVIEIVLATDMSTHFMQIKTMKSMLSLPEGIDKNKALCLIVHACDISHPAKPWNLHERWTEGVLEEFFRQGDLEASMGLPYSPLCDRHTVHVADSQIGFIDFIVEPTMVVCGELLVKMVEPLVSLPPTDSLFPPSVDGGDDKSPSNALSPLPDLRNSSTSPSSIRRIPLNYAGKLDIPTPWMKFLHENKAHWKERAAKEEEERKIKEAAEAEAAAKQVEENKENGVTTN
For B1, the binding result is “no binding” with EIF-3.L-GFP (C. elegans), “binds” in the assay with GFP-ARCP-1B (C. elegans) and “no binding” with MALT-1-GFP (C. elegans).
